Results: article PMC11408250

Amino acid sequences for entries named in this document (tags omitted).
UniProt Q9ERG0: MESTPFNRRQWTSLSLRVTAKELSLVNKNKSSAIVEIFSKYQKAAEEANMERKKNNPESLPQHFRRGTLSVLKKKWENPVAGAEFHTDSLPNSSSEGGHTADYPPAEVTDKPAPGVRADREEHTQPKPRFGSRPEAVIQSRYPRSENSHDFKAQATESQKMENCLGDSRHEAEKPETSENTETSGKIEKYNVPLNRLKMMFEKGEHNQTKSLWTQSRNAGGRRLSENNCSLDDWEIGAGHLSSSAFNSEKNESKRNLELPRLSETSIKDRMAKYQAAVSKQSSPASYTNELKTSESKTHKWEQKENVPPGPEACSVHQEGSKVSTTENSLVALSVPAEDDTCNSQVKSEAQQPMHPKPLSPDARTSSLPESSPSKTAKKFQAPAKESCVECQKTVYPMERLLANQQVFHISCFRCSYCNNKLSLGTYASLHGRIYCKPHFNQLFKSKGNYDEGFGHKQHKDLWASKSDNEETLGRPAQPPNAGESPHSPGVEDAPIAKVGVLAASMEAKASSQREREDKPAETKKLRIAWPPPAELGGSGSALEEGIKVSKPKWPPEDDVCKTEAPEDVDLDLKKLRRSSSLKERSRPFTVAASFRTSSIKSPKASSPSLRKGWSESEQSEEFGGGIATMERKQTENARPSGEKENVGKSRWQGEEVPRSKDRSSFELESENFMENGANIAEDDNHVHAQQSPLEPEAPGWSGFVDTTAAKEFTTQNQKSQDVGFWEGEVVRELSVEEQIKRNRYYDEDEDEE
UniProt P52332: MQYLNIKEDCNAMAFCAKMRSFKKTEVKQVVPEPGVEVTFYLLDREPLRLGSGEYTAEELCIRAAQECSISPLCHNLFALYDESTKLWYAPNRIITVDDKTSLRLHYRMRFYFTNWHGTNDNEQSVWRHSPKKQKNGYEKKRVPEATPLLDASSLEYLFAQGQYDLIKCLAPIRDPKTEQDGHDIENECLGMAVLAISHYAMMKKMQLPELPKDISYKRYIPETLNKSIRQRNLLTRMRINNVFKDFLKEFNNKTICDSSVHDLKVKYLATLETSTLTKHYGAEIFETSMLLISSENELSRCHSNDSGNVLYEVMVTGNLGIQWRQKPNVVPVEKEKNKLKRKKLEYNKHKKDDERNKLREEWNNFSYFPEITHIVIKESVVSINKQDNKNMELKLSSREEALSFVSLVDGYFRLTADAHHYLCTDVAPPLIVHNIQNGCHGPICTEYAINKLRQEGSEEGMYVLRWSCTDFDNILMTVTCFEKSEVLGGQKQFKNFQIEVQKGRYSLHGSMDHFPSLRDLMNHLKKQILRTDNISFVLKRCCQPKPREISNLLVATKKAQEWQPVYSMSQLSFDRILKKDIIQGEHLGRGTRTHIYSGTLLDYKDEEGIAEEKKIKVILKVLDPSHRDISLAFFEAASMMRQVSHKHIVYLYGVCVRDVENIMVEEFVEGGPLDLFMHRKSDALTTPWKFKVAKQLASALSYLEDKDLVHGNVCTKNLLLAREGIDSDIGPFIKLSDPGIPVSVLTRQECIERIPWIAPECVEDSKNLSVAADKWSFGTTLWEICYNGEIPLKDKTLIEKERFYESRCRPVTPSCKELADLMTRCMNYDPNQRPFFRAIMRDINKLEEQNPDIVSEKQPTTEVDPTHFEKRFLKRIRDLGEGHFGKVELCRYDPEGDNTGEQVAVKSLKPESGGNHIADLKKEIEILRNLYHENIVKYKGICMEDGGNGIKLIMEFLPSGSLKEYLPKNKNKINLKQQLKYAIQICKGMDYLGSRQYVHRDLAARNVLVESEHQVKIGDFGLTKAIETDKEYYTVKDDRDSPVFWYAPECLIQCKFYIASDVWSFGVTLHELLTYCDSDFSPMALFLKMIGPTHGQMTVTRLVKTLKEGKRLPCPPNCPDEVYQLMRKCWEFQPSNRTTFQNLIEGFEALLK
UniProt Q8VC57: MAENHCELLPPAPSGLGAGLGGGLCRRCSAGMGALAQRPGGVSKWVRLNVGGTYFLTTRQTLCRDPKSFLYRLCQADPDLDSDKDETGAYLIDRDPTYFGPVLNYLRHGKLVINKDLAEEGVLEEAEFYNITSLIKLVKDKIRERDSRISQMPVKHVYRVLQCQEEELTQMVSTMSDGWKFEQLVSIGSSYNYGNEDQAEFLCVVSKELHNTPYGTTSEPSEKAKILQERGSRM
UniProt Q8BGD9: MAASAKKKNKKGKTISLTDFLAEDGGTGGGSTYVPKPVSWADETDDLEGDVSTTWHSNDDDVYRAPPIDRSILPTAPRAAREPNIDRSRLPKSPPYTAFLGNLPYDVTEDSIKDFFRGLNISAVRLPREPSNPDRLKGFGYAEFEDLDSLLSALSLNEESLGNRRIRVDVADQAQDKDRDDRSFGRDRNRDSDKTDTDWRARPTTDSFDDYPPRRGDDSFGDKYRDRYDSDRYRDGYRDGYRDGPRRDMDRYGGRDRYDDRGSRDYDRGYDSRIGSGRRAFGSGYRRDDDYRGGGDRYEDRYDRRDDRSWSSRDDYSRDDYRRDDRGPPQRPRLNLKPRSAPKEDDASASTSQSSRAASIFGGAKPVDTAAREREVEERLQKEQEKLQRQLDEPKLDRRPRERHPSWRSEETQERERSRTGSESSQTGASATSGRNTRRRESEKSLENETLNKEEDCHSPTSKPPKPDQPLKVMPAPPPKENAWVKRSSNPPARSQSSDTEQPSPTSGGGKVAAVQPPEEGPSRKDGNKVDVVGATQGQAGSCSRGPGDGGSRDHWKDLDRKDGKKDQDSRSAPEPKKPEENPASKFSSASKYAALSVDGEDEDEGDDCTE
UniProt Q62261: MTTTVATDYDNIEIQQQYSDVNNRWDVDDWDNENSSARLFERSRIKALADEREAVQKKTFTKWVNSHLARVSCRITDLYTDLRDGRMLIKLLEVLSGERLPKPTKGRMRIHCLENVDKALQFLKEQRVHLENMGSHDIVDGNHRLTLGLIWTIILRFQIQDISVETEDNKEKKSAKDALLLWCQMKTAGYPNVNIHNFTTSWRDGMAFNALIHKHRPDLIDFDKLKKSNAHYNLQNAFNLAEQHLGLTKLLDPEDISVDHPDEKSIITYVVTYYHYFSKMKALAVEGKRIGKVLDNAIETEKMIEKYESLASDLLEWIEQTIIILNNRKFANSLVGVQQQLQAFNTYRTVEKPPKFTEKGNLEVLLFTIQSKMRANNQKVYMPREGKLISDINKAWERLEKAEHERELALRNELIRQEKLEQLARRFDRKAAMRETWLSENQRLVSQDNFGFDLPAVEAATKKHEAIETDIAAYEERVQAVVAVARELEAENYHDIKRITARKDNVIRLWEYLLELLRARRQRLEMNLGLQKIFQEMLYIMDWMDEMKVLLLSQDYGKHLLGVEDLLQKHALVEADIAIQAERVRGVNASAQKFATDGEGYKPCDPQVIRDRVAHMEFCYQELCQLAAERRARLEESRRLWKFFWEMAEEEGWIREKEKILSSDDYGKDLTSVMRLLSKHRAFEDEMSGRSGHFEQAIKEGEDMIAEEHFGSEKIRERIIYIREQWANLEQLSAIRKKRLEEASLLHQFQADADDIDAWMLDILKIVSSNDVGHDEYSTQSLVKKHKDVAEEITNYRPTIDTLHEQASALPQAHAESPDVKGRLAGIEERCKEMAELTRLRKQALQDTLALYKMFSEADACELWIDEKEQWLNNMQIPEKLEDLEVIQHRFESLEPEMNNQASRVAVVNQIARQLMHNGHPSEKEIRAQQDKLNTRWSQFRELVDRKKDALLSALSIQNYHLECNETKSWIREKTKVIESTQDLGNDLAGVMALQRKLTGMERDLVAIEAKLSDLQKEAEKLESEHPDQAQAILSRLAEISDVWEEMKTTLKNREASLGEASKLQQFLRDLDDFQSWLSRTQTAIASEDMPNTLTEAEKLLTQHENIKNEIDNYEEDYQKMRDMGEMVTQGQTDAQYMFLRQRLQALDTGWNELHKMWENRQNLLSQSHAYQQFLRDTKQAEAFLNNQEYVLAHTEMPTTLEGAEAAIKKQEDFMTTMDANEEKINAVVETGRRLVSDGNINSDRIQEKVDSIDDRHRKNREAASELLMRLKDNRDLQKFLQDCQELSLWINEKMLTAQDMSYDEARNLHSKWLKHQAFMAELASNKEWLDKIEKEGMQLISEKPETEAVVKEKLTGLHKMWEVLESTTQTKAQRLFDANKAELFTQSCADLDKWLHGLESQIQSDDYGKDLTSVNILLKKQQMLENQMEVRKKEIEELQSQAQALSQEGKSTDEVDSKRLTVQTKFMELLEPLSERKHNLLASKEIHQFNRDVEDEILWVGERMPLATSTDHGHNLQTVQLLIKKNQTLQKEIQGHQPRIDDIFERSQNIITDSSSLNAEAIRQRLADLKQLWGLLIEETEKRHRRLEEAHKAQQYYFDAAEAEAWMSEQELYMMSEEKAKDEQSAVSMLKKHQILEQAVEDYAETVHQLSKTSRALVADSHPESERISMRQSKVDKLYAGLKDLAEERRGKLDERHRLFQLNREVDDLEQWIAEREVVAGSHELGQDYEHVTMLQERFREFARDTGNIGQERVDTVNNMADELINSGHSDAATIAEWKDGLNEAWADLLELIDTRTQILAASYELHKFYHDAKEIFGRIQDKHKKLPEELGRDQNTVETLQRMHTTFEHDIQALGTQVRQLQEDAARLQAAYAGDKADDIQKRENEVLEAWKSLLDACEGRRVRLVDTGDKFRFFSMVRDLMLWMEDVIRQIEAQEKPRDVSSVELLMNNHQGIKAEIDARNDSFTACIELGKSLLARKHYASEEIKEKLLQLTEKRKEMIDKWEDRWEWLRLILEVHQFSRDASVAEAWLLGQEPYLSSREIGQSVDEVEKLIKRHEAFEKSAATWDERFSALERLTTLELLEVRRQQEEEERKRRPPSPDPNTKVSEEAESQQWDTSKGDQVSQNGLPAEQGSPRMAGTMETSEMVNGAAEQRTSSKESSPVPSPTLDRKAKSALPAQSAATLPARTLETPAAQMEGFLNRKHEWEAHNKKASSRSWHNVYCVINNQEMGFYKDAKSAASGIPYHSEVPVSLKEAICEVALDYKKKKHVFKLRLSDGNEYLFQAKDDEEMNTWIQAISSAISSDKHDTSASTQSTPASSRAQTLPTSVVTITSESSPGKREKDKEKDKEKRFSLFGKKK
UniProt P97427: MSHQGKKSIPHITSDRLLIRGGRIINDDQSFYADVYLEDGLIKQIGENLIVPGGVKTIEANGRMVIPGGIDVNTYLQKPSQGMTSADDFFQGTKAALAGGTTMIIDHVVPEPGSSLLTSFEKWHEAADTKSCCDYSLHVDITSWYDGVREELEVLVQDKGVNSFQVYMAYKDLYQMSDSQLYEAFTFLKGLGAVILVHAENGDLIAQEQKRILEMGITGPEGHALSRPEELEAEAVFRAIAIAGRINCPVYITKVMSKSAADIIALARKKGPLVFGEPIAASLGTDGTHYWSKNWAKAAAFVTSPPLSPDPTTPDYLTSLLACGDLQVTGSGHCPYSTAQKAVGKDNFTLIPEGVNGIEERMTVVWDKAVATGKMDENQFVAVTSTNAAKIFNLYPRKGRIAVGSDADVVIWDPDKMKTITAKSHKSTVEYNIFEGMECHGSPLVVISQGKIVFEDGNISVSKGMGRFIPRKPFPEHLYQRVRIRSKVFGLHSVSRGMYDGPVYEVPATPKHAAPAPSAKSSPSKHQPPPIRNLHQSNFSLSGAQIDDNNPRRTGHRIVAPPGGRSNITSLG
UniProt Q8BJH1: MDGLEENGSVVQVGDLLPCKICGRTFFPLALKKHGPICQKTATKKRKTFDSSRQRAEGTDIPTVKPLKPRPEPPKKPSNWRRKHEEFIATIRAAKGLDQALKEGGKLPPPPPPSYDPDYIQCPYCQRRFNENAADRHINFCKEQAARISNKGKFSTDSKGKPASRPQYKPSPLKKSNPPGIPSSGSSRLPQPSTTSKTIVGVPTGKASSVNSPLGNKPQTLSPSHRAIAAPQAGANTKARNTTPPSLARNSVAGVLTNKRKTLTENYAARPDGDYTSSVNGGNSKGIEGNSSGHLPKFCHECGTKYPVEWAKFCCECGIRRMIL
UniProt Q62188: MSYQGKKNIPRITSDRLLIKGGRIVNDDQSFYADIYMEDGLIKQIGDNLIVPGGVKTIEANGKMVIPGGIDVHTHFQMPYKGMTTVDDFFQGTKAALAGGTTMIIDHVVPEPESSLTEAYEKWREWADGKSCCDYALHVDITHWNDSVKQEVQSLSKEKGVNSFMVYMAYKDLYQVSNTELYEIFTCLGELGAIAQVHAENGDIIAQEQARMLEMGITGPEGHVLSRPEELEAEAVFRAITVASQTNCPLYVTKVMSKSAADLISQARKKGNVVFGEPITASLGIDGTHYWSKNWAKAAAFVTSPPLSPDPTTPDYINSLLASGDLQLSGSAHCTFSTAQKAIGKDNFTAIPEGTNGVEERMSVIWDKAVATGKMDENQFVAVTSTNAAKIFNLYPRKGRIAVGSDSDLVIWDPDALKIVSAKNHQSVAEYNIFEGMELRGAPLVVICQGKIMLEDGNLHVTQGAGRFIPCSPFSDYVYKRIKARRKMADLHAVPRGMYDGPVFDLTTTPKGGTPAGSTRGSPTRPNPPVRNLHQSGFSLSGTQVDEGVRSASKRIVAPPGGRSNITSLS

What was measured:
[1] = biological target: T1, PCDH19-HA-FLAG (Protocadherin 19, endogenous in Pcdh19-HA-FLAG mice) (mouse (endogenous in mouse brain)) (UniProt Q80TF3); assay: affinity purification with mass spectrometry; Experiment 2, embryonic: PCDH19-HA-FLAG precipitated with anti-FLAG M2 affinity gel from E17.5-18.5 mouse cortex and hippocampus lysate, control mouse IgG affinity gel; IP Buffer, overnight 4 °C; LC-MS/MS
T1 sequence: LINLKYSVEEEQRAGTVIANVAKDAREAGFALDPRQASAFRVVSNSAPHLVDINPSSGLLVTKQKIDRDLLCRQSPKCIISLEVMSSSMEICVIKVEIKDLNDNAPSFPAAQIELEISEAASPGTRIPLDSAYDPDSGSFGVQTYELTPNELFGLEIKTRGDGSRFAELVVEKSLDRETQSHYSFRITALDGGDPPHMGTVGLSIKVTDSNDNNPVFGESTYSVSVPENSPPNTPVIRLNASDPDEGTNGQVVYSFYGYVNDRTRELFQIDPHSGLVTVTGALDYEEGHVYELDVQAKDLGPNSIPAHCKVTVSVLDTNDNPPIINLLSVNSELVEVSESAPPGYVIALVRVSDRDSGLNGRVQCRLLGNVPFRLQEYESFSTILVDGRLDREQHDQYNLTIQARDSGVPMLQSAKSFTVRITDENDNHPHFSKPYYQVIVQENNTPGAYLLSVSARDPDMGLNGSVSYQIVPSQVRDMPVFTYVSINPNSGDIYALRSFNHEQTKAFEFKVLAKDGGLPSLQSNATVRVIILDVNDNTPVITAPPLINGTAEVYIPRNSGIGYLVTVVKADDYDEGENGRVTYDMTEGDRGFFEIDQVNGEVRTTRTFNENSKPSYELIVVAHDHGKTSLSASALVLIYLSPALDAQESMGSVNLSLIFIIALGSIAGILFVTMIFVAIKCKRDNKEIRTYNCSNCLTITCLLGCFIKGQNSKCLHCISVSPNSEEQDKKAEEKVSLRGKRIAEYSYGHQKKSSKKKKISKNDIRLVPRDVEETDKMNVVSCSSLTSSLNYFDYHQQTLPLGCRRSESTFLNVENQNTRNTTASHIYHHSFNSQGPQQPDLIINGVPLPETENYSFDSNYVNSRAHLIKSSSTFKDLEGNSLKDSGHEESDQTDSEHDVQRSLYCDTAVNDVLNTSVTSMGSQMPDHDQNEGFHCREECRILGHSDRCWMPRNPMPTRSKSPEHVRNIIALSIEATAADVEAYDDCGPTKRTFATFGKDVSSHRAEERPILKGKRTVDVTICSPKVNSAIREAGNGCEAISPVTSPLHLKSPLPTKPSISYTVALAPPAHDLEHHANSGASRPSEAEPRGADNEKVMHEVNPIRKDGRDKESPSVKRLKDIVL

[2] = biological target: T1, PCDH19-HA-FLAG (Protocadherin 19, endogenous in Pcdh19-HA-FLAG mice) (mouse (endogenous in mouse brain)); assay: affinity purification with mass spectrometry; Experiment 2, postnatal: PCDH19-HA-FLAG precipitated with anti-FLAG M2 affinity gel from P6-7 mouse cortex and hippocampus lysate, control mouse IgG affinity gel; IP Buffer, overnight 4 °C; LC-MS/MS
[3] = biological target: T1, PCDH19-HA-FLAG (Protocadherin 19, endogenous in Pcdh19-HA-FLAG mice) (mouse (endogenous in mouse brain)); assay: affinity purification with mass spectrometry; Experiment 1: PCDH19-HA-FLAG precipitated with anti-FLAG M2 affinity gel from E18.5 mouse cortex lysate, control untagged mice; IP Buffer (50 mM Tris-HCl pH 7.5, 150 mM NaCl, 0.2% Triton-X-100, 2 mM EDTA, 0.01% SDS), overnight 4 °C; LC-MS/MS

Row | Substance | binding [1] | binding [2] | binding [3]
1 | LIM Domain And Actin Binding 1 (from UniProt Q9ERG0 1-753) | binds | – | –
2 | Actinin Alpha 1 (from UniProt Q7TPR4 1-892) | – | binds | –
3 | Janus Kinase 1 (from UniProt P52332 1-1153) | – | binds | –
4 | Capping Actin Protein Of Muscle Z-Line Subunit Beta (from UniProt P47757 1-277) | binds | – | –
5 | Serine/Arginine Repetitive Matrix 2 (from UniProt Q8BTI8 1-2703) | – | binds | –
6 | Myosin XVIIIA (from UniProt Q9JMH9 1-2050) | binds | binds | –
7 | Microtubule-associated protein 1A (from UniProt Q9QYR6 1-2776) | – | – | binds
8 | Protein Phosphatase 1 Regulatory Subunit 9A (mouse (endogenous in mouse brain)) | – | binds | –
9 | Microtubule Associated Protein 2 (from UniProt P20357 1-1828) | binds | binds | –
10 | Protein Phosphatase 1 Regulatory Subunit 9B (from UniProt Q6R891 1-817) | binds | – | –
11 | TRIO and F-actin Binding Protein (from UniProt Q99KW3 1-2014) | binds | – | –
12 | Potassium Channel Tetramerization Domain Containing 5 (from UniProt Q8VC57 1-234) | binds | binds | –
13 | Ribosomal Protein L29 (from UniProt P47915 1-160) | binds | – | –
14 | Eukaryotic translation initiation factor 4B (from UniProt Q8BGD9 1-611) | binds | binds | –
15 | Microtubule Associated Protein 1B (from UniProt P14873 1-2464) | binds | binds | –
16 | Myosin Heavy Chain 14 (from UniProt Q6URW6 1-2000) | – | binds | –
17 | Beta II-spectrin (from UniProt Q62261 1-2363) | – | binds | –
18 | Capping Actin Protein Of Muscle Z-Line Subunit Alpha 2 (from UniProt P47754 1-286) | binds | binds | –
19 | Collapsin Response Mediator Protein 1 (from UniProt P97427 1-572) | – | binds | –
20 | Zinc Finger C2HC-Type Containing 1A (from UniProt Q8BJH1 1-324) | – | binds | –
21 | Ankyrin 2 (from UniProt Q8C8R3 1-3898) | binds | – | –
22 | Dihydropyrimidinase Like 3 (from UniProt Q62188 1-570) | – | binds | –
23 | Alpha II-spectrin (from UniProt P16546 1-2472) | binds | binds | –
24 | ATP synthase F1 subunit alpha (from UniProt Q03265 44-553) | – | binds | –

These are yes or no findings as the source states them, for the method shown. In cells and extracts the contact can be indirect. A yes stands for co-enrichment or nearness to the bait. Other partners may have been found. Tags and fused reporters may be left off the sequences shown.
